# Data as given in US7414113B2, “Antibody that specifically binds to Candida kefyr Cytosine deaminase” (Onyx Pharmaceuticals, Inc., priority 2002, dated 2008).
# Values joined by “and” are separate entries in the source; they are usually repeats but may differ in a detail not shown here. Equal values may be shown once.
# B1: E-CD-FLAG: E. coli cytosine deaminase with FLAG tag (protein, UniProt P25524 2-427, looked up)
# Cytosine deaminase: SNNALQTIINARLPGEEGLWQIHLQDGKISAIDAQSGVMPITENSLDAEQGLVIPPFVEPHIHLDTTQTAGQPNWNQSGTLFEGIERWAERKALLTHDDVKQRAWQTLKWQIANGIQHVRTHVDVSDATLTALKAMLEVKQEVAPWIDLQIVAFPQEGILSYPNGEALLEEALRLGADVVGAIPHFEFTREYGVESLHKTFALAQKYDRLIDVHCDEIDDEQSRFVETVAALAHHEGMGARVTASHTTAMHSYNGAYTSRLFRLLKMSGINFVANPLVNIHLQGRFDTYPKRRGITRVKEMLESGINVCFGHDDVFDPWYPLGTANMLQVLHMGLHVCQLMGYGQINDGLNLITHHSARTLNLQDYGIAAGNSANLIILPAENGFDALRRQVPVRYSVRGGKVIASTQPAQTTVYLEQPEAIDYKR
# modifications: FLAG tag
# Tested on: HEK 293 cells
# Assay: Expression of CD constructs, anti-FLAG Western blot of cell lysate
# Assay type: cell-based, Human
# Conditions: FIG. 8
# Excerpt: Human embryonic kidney cells (HEK 293 cells) were transiently transfected with one of these constructs: CK-CD-FLAG, CK-CD, E-CD-FLAG, E-CD or vector alone (pCMV-tag4C). […] Cells co-transfected with a construct and a GFP containing plasmid indicated approximately equivalent levels of transfection.
# The experimental details are as follows: 293 cells in 10 cm dishes were transfected with 10 or 15 ÿg of CD constructs using FuGene® 6 (ROCHE™) at a DNA/FuGene® ratio of 1:3. No carrier DNA was used. Cell lysates were collected in 1 ml of lysis buffer (20 mM Tris-Cl, pH8, 150 mM NaCl, 1% Triton X-100) after 48 hours by three freeze/thaw cycles using dry ice for 10 minutes and room temperature for 10 minutes.
# 30 μl of cell lysate was separated by 12% SDS-PAGE, transferred to membrane and then Western blotted with anti-flag monoclonal antibody at a dilution of 1:5000 (SIGMA™). The membranes were incubated with HRP conjugated goat-anti-mouse secondary antibody (1:10000, AMERSHAM™) and the signal visualized with an ECL system (AMERSHAM™). […] Similar results were obtained (not shown) when the cells were transfected with 2 μg of each DNA construct. Experiments are planned to test a humanized C. kefyr gene and it is expected that the humanized gene will improve the expression levels. […]
molecule,measurement,setting,value
B1,amount of E-CD-FLAG lysate equivalent to 30 μl of CK-CD-FLAG lysate,Western blot with anti-FLAG,~3 µL and ~4 µL
same,fold better expression of E-CD-FLAG than CK-CD-FLAG,second Western blot,about 7.5 fold
